This is one part of the list. Shown are side measurements of this screen, not its main read-out; they come without a call. Most of these compounds were active or inconclusive in the main read-out, so they are no random draw. The note in brackets gives the kind of curve behind each potency; many fits are weak.
Experiment: Cell signaling CRE-BLA (Fsk stim)
Conditions: CHO CRE-bla reporter (cAMP response element driving beta-lactamase), forskolin EC10, beta-lactamase ratio; measured here: 460 nm blue channel
Outline: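 Modulation of forskolin signalling: compounds in titration series added with EC10 NKH 477 to CHO cells carrying a CRE-driven beta-lactamase reporter, 3 h, 37C. CCF4 FRET ratio (460/530 nm, ex 405 nm) gives %activity and AC50.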

| Structure (SMILES) | AC50 |
| --- | --- |
| COCCCn1c(=N)c(C(=O)NCc2ccc3c(c2)OCO3)cc2c(=O)n3ccccc3nc21 | 10 µM [rising, partial curve] |
| O=C(NC1CCCCC1)N1CCC(c2nc3ccc(Cl)cc3[nH]2)CC1 | 12.6 µM [rising, partial curve] |
| CCn1nc(C(=O)N2CCc3ccccc3C2)c2ccccc2c1=O | 15.8 µM [rising, partial curve, poor fit] |
| COCCN1Cc2c(sc(C)c2C)N(C(=O)c2ccccc2)C1 | 12.6 µM [rising, single point] |
| COc1nc(N(C#N)CC(N)=O)nc(N2CCCC2)n1 | 10 µM [rising, partial curve] |
| COc1ccc(-c2cc(C(F)F)nc(-n3nc(C)cc3C)n2)cc1 | 12.6 µM [rising, partial curve] |
| Cc1occc1C(=O)Nc1sc2c(c1C(N)=O)CCCCC2 | 0.316 µM [rising, full curve] |
| COc1cccc(/C=N/n2cncn2)c1OCC#N | 0.02 µM [falling, full curve, poor fit] |
| CCOC(=O)c1c(NC(=O)CSc2nnc(-c3cccnc3)n2Cc2ccco2)sc(C)c1C | 2.51 µM [rising, full curve] |
| CC1CCc2nc(NCCO)nc(C(F)(F)F)c2C1 (configuration not stated) | 12.6 µM [rising, single point] |
| CCOCC(=O)Nc1ccc(-c2cn3cccnc3n2)cc1 | 0.251 µM [falling, full curve] |
| CCOC(=O)c1nc(NCc2cccnc2)c2ccccc2n1 | 12.6 µM [rising, partial curve] |
| C=CCn1c(CCNC(=O)C(C)(C)C)nc2ccccc21 | 0.0794 µM [falling, full curve, poor fit] |
| O=C(Nc1ccc2c(c1)OCO2)C1Cc2ccccc2CN1S(=O)(=O)c1cccs1 (configuration not stated) | 12.6 µM [falling, partial curve] |
| CCOC(=O)c1ccccc1NC(=O)COc1ccccc1 | 10 µM [rising, partial curve] |
| c1ccc(CCCNc2ncnc3nc[nH]c23)cc1 | 7.94 µM [rising, partial curve] |
| COc1cc2c(O)c3c(c(-c4ccc5c(c4)OCO5)c2cc1OC)C(=O)OC3 | 5.01 µM [rising, single point] |
| CC(=O)OC[C@H]1O[C@@H](n2ccc(=O)[nH]c2=S)C(OC(C)=O)C1OC(C)=O (some centres not stated) | 0.00398 µM [falling, full curve, poor fit] |
| COc1cc(NC(=O)c2ccc(COCC(F)(F)F)o2)cc(OC)c1OC | 15.8 µM [rising, partial curve] |
| CCc1cc2c(C)cc(=O)oc2cc1OC(=O)C1CCCN1C(=O)OC(C)(C)C (configuration not stated) | 10 µM [rising, single point] |
| CC(=O)c1cccc(NC(=O)C2CCCC2)c1 | 1 µM [falling, single point] |
| CCCn1c(C)nc2c(N3CCN(C)CC3)nc(C)nc21 | 20 µM [rising, single point] |
| N#Cc1c(N)oc(-c2ccco2)c1-c1ccco1 | 5.01 µM [falling, partial curve] |

| Structure (SMILES) | AC50 |
| --- | --- |
| COC(=O)c1ccc2ncccc2c1 | 25.1 µM [rising, single point] |
| CS(=O)(=O)Nc1ccccc1Oc1ccccc1 | 0.00398 µM [falling, full curve] |
| COc1ccccc1N1CCN(C(c2ccccc2Cl)c2nnnn2C(C)(C)C)CC1 (configuration not stated) | 0.794 µM [rising, full curve, poor fit] |
| COc1ccc(-n2nnnc2SCC(=O)c2ccc(O)c(O)c2)cc1 | 10 µM [falling, partial curve, poor fit] |
| O=C(CSc1nc2c(cnn2-c2ccc(F)cc2)c(=O)[nH]1)N1CCCc2ccccc21 | 0.00398 µM [falling, full curve, poor fit] |
| c1ccc2[nH]c(CN3CCN(c4ncnc5c4oc4ccccc45)CC3)nc2c1 | 7.94 µM [rising, partial curve] |
| O=C(C1CCCCC1)N1CCCC(c2nc(-c3ccc(F)cc3)no2)C1 (configuration not stated) | 25.1 µM [rising, single point] |
| COCCOC(=O)C1=C(C)Nc2ncnn2C1c1ccc(F)cc1 (configuration not stated) | 0.0794 µM [falling, single point] |
| COc1ccccc1N1C(=O)C2CC=CC(C)C2C1=O (configuration not stated) | 0.794 µM [falling, partial curve] |
| COc1cc(OC)cc(-c2cc3nc4c(c(N5CCN(c6ncccn6)CC5)n3n2)CCCC4)c1 | 2.51 µM [rising, full curve] |
| O=C(NCc1ccco1)c1cc2ccc(O)cc2oc1=O | 2.51 µM [rising, full curve] |
| CC(C)C[C@@H](CC(=O)N[C@H](CC(=O)N[C@@H]1CCCC[C@H]1C(=O)N[C@H](CC(=O)N[C@@H](CCC(=O)O)CC(=O)O)Cc1c[nH]c2ccccc12)C(C)C)NC(=O)[C@@H]1CCCC[C@H]1N | 10 µM [falling, partial curve] |
| Cc1onc(-c2ccccc2Cl)c1-c1nc(-c2ccccn2)no1 | 12.6 µM [rising, single point] |
| Cn1c(=O)[nH]c(=O)c2c1nc1n2CCCN1CCc1ccccc1 | 10 µM [rising, partial curve] |
| CCc1noc(C)c1C(=O)Nc1sc(C(=O)N(C)C)c(C)c1C(=O)OC | 10 µM [rising, partial curve] |
| CSc1ccccc1NC(=O)c1ccoc1C | 12.6 µM [falling, partial curve] |
| Cc1nc2ccccc2c2oc(C(=O)N3CCc4ccccc4C3)cc12 | 20 µM [falling, single point] |
| COc1ccc(-c2nc3oc4cc(OC)ccc4c(=O)c3c(=O)n2Cc2ccco2)cc1 | 0.631 µM [rising, full curve] |
| CC1Cc2nc(SCC(=O)Nc3ccc4c(c3)OCO4)n(-c3ccc(F)cc3)c(=O)c2S1 (configuration not stated) | 7.94 µM [rising, partial curve] |
| C=CCn1cc(C(=O)NCc2cccnc2)c(=O)c2cc(S(=O)(=O)N(CC)CC)ccc21 | 5.01 µM [rising, full curve] |
| CCOC(=O)c1c(NC(=O)Cc2cccs2)sc(C(=O)N2CCCCC2)c1C | 2.51 µM [rising, full curve] |
| Cc1ccc(CCNC(=O)C2CCN(C(=O)c3sccc3-n3cccc3)CC2)cc1 | 0.00398 µM [falling, full curve, poor fit] |
| COc1ccc(-c2nc3cnc(Oc4ccccc4)nc3n(C3CC3)c2=O)cc1 | 10 µM [rising, partial curve] |

14 entries from above in a different format:
Structure (SMILES) | AC50
CCn1nc(C(=O)N2CCc3ccccc3C2)c2ccccc2c1=O | 15.8 µM [rising, partial curve, poor fit]
Cc1occc1C(=O)Nc1sc2c(c1C(N)=O)CCCCC2 | 0.316 µM [rising, full curve]
CC1CCc2nc(NCCO)nc(C(F)(F)F)c2C1 (configuration not stated) | 12.6 µM [rising, single point]
CCOCC(=O)Nc1ccc(-c2cn3cccnc3n2)cc1 | 0.251 µM [falling, full curve]
c1ccc(CCCNc2ncnc3nc[nH]c23)cc1 | 7.94 µM [rising, partial curve]
COc1cc(NC(=O)c2ccc(COCC(F)(F)F)o2)cc(OC)c1OC | 15.8 µM [rising, partial curve]
CCCn1c(C)nc2c(N3CCN(C)CC3)nc(C)nc21 | 20 µM [rising, single point]
COc1ccccc1N1CCN(C(c2ccccc2Cl)c2nnnn2C(C)(C)C)CC1 (configuration not stated) | 0.794 µM [rising, full curve, poor fit]
O=C(C1CCCCC1)N1CCCC(c2nc(-c3ccc(F)cc3)no2)C1 (configuration not stated) | 25.1 µM [rising, single point]
COCCOC(=O)C1=C(C)Nc2ncnn2C1c1ccc(F)cc1 (configuration not stated) | 0.0794 µM [falling, single point]
CC(C)C[C@@H](CC(=O)N[C@H](CC(=O)N[C@@H]1CCCC[C@H]1C(=O)N[C@H](CC(=O)N[C@@H](CCC(=O)O)CC(=O)O)Cc1c[nH]c2ccccc12)C(C)C)NC(=O)[C@@H]1CCCC[C@H]1N | 10 µM [falling, partial curve]
CC1Cc2nc(SCC(=O)Nc3ccc4c(c3)OCO4)n(-c3ccc(F)cc3)c(=O)c2S1 (configuration not stated) | 7.94 µM [rising, partial curve]
CCOC(=O)c1c(NC(=O)Cc2cccs2)sc(C(=O)N2CCCCC2)c1C | 2.51 µM [rising, full curve]
Cc1ccc(CCNC(=O)C2CCN(C(=O)c3sccc3-n3cccc3)CC2)cc1 | 0.00398 µM [falling, full curve, poor fit]

(further entries)

| Structure (SMILES) | AC50 |
| --- | --- |
| CCOC(=O)c1sc2ncn(C(CC)C(=O)OC)c(=O)c2c1C (configuration not stated) | 12.6 µM [rising, partial curve] |
| Cc1cc(NC(=O)c2cc(-c3ccncc3)nc3c(C)cccc23)no1 | 10 µM [rising, partial curve] |
| COCCN(CCOC)c1ncnc2c1cnn2-c1ccc(Cl)cc1 | 10 µM [rising, partial curve] |
| CN(C)c1ccc(C(=O)OCC(=O)NC2CCCCC2)cc1 | 3.98 µM [falling, partial curve] |
| NCCCCCCCCCCN | 12.6 µM [falling, single point] |
| Cc1ccc2oc(=O)c3cc(C(=O)N4CCN(C(=O)c5ccco5)CC4)sc3c2c1 | 3.16 µM [rising, single point] |
| COc1ccc(OCCOC(=O)c2cccc(-n3cnnn3)c2)cc1 | 10 µM [rising, partial curve] |
| COC(=O)[C@@]1(Cc2ccccc2)[C@H]2c3cc(C(=O)N4CCCC4)[nH]c3C[C@H]2CN1C(=O)c1ccccc1 | 3.16 µM [rising, full curve] |
| COc1ccc(C(CC(=O)O)NC(=O)COc2ccccc2)cc1OC (configuration not stated) | 5.01 µM [falling, partial curve, poor fit] |
| Cc1nn(Cc2ccccc2)c2sc(C(=O)NCc3cccnc3)cc12 | 20 µM [rising, single point] |
| Cc1cc(Nc2ccc(F)cc2)n2nc(C)nc2n1 | 10 µM [rising, partial curve] |
| O=C1c2ccccc2S(=O)(=O)N1CCOc1ccccc1 | 0.2 µM [falling, full curve, poor fit] |
| Cc1ccsc1CN1CCN(c2ccccn2)CC1 | 0.00316 µM [falling, full curve, poor fit] |
| COc1cccc(NC(=O)CCCn2c(=O)[nH]c3ccccc3c2=O)c1 | 1.26 µM [rising, partial curve] |
| O=c1c(-c2ccc(F)cc2)nc2cnc(N3CCNCC3)nc2n1Cc1ccc(F)cc1 | 2 µM [rising, full curve] |
| COc1ccc(-n2c(=O)cnc3cnc(N(C)C)nc32)cc1 | 10 µM [rising, partial curve] |
| CN(N=O)C(=O)N[C@H]1C(O)OC(CO)[C@@H](O)[C@H]1O (some centres not stated) | 12.6 µM [falling, partial curve, poor fit] |
| Cn1c(C(=O)N2CCN(c3ccc(Cl)cc3)CC2)cc2c(=O)[nH]c3ccccc3c21 | 0.00316 µM [falling, full curve, poor fit] |
| COc1ccccc1NC(=O)CSc1nccc(=O)[nH]1 | 0.398 µM [rising, full curve] |
| N[C@@H](C(=O)O)c1ccc(C(=O)O)c(C(=O)O)c1 | 31.6 µM [falling, single point] |
| CCOC(=O)C1CCCN(c2ncnc3c2cnn3-c2ccc(OC)cc2)C1 (configuration not stated) | 25.1 µM [rising, single point] |

— PubChem BioAssay AID662 (National Center for Advancing Translational Sciences (NCATS), 2007)
